# According to the supplement of paper PMC12067093, “Discovery and optimisation of a covalent ligand for TRIM25 and its application to targeted protein ubiquitination” (Chemical Science, 2025):
# Sequences of proteins named here, by UniProt entry; tags and fusion partners are left off. A change or cut given only in a name is not applied to a line headed by its entry.
# UniProt P36897: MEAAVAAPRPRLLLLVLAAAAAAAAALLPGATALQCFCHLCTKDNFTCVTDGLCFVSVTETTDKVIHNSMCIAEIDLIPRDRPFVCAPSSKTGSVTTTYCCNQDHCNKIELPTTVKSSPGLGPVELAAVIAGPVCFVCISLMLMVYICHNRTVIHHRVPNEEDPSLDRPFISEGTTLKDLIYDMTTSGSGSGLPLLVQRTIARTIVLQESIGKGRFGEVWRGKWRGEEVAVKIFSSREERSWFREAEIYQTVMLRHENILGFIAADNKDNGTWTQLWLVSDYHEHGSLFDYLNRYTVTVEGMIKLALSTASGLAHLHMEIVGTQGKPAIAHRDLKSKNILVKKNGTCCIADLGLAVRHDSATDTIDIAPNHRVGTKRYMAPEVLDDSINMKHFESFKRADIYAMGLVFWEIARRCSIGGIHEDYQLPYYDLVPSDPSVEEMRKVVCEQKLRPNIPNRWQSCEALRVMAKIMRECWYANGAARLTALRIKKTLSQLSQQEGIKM
# UniProt Q9UNS1: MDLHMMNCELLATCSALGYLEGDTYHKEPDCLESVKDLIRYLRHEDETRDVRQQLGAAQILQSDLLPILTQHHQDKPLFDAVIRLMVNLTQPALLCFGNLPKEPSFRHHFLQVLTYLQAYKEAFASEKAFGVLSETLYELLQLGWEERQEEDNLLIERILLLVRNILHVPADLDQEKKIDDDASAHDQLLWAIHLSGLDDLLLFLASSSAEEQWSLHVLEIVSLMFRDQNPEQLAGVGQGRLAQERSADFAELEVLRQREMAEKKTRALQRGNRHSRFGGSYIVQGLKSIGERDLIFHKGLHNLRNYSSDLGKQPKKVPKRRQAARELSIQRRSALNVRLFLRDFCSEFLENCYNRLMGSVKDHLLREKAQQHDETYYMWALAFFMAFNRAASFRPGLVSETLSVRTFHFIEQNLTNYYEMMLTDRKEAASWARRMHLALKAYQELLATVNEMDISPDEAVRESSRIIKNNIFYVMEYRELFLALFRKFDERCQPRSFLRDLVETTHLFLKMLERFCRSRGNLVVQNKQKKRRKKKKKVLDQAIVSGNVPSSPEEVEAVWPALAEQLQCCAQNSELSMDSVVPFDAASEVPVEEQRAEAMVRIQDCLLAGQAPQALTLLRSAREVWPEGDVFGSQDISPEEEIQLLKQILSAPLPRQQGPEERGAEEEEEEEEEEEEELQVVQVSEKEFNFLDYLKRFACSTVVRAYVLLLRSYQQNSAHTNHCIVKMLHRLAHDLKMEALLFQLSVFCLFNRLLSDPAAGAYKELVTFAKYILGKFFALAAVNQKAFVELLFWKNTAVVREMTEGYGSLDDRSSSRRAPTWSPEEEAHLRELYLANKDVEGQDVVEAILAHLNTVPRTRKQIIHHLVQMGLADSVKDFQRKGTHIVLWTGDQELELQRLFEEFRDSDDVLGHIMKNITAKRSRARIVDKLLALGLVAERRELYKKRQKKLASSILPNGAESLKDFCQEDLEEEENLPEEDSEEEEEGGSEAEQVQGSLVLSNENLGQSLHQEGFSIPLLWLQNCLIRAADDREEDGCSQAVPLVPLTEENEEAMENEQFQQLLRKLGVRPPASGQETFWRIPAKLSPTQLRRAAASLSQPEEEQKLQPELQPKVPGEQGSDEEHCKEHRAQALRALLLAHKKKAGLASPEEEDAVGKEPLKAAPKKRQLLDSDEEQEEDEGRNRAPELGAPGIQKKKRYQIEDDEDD
# UniProt P52888, whole entry, looked up: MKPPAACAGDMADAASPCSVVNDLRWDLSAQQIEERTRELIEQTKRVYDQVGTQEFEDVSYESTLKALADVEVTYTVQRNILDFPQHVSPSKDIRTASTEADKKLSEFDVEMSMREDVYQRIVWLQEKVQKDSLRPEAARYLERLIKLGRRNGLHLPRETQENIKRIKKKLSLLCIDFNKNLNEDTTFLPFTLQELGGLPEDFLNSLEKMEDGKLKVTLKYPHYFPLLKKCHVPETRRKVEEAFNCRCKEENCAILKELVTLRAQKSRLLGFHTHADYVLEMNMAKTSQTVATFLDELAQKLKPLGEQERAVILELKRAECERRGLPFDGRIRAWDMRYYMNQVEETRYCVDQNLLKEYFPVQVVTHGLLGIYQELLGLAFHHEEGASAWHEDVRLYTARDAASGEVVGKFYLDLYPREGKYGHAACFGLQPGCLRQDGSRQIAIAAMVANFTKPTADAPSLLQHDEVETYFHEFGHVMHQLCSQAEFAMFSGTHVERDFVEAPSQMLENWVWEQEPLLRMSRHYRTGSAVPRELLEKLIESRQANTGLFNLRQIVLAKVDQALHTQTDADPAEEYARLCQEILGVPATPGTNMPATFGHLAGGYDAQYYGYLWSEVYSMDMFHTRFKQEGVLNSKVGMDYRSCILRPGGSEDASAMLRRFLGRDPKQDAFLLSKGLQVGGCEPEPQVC
# UniProt Q6P9B6: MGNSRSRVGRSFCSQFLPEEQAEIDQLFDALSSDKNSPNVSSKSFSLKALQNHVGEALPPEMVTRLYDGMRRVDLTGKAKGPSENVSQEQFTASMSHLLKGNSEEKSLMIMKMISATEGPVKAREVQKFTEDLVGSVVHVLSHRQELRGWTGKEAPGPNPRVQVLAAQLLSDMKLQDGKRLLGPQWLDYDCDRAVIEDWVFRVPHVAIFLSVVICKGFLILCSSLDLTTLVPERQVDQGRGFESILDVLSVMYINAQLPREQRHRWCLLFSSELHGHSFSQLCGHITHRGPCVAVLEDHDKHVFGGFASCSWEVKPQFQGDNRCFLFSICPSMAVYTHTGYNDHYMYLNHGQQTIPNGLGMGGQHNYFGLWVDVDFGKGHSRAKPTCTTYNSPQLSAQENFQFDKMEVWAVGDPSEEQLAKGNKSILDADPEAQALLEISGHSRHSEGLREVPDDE
# UniProt Q9BV44: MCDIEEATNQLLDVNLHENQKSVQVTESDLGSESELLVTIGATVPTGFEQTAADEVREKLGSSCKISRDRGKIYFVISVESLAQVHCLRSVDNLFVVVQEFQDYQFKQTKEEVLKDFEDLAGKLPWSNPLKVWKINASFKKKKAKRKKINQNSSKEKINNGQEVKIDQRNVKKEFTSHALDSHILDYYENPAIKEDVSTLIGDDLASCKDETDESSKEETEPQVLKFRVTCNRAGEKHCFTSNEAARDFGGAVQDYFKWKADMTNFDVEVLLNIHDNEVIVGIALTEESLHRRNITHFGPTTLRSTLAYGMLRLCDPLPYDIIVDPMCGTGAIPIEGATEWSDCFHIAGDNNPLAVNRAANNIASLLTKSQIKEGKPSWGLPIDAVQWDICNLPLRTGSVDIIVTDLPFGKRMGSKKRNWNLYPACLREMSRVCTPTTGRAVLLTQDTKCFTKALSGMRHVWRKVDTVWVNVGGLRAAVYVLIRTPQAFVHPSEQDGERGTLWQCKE
# UniProt Q8NHU6: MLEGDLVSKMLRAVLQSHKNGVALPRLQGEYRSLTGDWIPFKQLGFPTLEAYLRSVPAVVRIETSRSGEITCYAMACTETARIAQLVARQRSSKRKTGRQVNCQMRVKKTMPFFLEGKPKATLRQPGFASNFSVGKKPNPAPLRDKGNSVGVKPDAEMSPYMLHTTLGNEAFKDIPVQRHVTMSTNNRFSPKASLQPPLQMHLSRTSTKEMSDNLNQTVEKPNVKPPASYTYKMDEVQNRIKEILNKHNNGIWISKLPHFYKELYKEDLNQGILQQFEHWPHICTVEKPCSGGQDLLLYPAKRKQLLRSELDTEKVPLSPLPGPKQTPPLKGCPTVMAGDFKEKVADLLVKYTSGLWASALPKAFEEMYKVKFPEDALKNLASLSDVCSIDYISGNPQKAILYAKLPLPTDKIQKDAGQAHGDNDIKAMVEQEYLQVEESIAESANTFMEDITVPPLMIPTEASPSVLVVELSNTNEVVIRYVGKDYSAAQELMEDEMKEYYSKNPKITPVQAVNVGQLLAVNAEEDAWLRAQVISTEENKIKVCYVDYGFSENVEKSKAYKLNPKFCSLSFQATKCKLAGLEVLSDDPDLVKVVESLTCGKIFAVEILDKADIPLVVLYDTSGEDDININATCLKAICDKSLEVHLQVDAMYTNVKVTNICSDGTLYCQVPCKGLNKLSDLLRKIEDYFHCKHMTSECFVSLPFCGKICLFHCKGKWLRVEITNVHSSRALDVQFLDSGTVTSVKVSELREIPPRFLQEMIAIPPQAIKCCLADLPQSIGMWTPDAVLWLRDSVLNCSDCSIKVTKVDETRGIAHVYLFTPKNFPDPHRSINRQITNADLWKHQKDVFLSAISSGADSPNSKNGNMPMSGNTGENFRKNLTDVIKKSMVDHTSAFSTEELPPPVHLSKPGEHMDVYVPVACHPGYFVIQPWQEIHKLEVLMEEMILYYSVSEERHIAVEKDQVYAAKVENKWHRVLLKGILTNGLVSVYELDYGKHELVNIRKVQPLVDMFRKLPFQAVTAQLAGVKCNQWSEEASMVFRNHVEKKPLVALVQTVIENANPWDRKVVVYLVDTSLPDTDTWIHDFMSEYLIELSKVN
# UniProt P07204, whole entry, looked up: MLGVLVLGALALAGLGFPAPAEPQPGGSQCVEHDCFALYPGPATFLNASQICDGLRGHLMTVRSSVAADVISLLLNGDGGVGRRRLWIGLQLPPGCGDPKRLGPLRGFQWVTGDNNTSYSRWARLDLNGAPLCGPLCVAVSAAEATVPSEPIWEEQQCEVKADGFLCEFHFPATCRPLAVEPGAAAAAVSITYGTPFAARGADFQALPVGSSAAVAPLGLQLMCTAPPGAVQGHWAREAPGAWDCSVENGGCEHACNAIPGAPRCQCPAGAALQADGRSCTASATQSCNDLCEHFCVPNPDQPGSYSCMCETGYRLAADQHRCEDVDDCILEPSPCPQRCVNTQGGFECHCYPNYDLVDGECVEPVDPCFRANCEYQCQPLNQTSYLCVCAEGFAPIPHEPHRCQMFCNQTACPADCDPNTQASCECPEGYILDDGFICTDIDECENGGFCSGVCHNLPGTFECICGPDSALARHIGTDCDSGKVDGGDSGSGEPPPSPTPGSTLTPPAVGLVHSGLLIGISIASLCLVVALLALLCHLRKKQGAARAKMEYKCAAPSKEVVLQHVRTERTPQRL
# UniProt P04183: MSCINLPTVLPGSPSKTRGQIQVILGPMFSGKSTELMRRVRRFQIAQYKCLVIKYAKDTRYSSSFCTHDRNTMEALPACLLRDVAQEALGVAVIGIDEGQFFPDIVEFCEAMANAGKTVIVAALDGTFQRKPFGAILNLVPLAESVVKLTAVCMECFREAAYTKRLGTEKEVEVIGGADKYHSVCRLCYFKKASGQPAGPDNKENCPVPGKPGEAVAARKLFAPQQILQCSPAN
# UniProt Q86W42: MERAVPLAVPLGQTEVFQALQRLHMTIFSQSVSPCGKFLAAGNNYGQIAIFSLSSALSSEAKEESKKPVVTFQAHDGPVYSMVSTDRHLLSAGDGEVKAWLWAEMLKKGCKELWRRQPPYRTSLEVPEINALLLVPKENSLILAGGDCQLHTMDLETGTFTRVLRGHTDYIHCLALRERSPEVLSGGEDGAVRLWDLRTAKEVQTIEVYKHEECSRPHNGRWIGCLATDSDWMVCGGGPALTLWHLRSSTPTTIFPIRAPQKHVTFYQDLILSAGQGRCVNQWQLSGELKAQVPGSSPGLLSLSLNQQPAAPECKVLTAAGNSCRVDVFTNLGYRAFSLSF
# UniProt Q6I9Y2: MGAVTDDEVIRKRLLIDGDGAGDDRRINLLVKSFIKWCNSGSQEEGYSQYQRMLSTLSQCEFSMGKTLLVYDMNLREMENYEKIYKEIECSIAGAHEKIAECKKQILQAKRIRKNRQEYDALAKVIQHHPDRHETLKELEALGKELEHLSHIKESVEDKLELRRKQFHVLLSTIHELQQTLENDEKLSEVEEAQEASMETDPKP
# UniProt P17987, whole entry, looked up: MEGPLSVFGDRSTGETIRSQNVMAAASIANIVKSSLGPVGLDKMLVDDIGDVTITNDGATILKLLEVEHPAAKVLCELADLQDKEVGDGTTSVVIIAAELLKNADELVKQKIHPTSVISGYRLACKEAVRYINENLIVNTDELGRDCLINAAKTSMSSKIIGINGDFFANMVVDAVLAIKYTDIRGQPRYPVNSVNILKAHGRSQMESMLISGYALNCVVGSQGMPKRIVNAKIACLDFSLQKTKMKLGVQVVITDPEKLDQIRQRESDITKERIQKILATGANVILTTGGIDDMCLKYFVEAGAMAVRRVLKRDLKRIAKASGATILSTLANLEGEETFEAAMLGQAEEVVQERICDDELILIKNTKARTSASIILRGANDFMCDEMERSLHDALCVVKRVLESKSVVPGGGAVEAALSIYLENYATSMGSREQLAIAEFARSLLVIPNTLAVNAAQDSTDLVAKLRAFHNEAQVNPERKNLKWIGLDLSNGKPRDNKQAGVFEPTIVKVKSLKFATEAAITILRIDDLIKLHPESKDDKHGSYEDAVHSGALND
# UniProt Q9P016: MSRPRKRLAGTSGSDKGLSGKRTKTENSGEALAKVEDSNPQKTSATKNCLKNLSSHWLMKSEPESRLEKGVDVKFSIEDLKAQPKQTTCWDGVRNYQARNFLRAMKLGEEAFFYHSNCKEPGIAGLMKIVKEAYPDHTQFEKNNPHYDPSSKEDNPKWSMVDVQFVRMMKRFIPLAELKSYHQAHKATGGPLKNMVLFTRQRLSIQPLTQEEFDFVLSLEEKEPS
# This is one part of the list.
# Compound: Cc1cc(ccc1-c1ccccc1)C(=O)N1CCCN(CC1)C(=O)CCl [compound 10]
# Assay: probe-labelled cysteine peptide fold change vs DMSO (competition) (log2 fold change); higher = less target engagement (more negative = stronger competition)
# Details: 10 µM; THP-1; incubation time: 4 h
# 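Note: competitive profiling in live THP-1 cells: cysteine peptides tagged with an iodoacetamide desthiobiotin (IA-DTB) probe, intensity after compound treatment relative to DMSO-treated cells.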
row,Target,probe-labelled cysteine peptide fold change
1,TDP1_Q9NUW8_413_WLCSEFK (UniProt Q9NUW8),-0.13
2,TGFBR1_P36897_347_NGTCCIADLGLAVR (UniProt P36897),-0.145
3,THOC2_Q8NI27_1031_VFSDIIYTVASCTENEASR (UniProt Q8NI27),0.122
4,TIMELESS_Q9UNS1_606_IQDCLLAGQAPQALTLLR (UniProt Q9UNS1),-0.552
5,THOC2_Q8NI27_1045_FLCCMLETVTR (UniProt Q8NI27),0.0255
6,THOP1_P52888_434_YGHAACFGLQPGCLR (UniProt P52888),0.0705
7,TDRD3_Q9H7E2_377_CDRPYSR (UniProt Q9H7E2),-0.0361
8,TET2_Q6N021_784_VEECFHGENQYSK (UniProt Q6N021),-0.295
9,TECR_Q9NZ01_18_LCFLDK (UniProt Q9NZ01),-0.134
10,THAP10_Q9P2Z0_171_QAAASQITCENELVQTQPHADNPSNTVTSVPTHCEEGPVHK (UniProt Q9P2Z0),-0.544
11,THOC1_Q96FV9_49_KCTLDQAFR (UniProt Q96FV9),-0.137
12,TLDC1_Q6P9B6_292_GPCVAVLEDHDK (UniProt Q6P9B6),-0.0167
13,TKT_P29401_413+417_MAAISESNINLCGSHCGVSIGEDGPSQMALEDLAMFR (UniProt P29401),-0.0102
14,TEP1_Q99973_171_GLDLSTCPIALK (UniProt Q99973),-0.11
15,THOP1_P52888_246_KVEEAFNCR (UniProt P52888),-0.102
16,TKT_P29401_206+225_RCEAFGWHAIIVDGHSVEELCK (UniProt P29401),-0.0863
17,TLN1_Q9Y490_1509_HTSALCNSCR (UniProt Q9Y490),0.0952
18,THUMPD3_Q9BV44_434_VCTPTTGR (UniProt Q9BV44),0.0194
19,TEP1_Q99973_1468_SWEEAVAAGNSGDPYPMGPFACLVQSLR (UniProt Q99973),-0.31
20,TEX264_Q9Y6I9_165_KLCAYPR (UniProt Q9Y6I9),-0.0198

row,Target,probe-labelled cysteine peptide fold change
1,THUMPD1_Q9NXG2_31_RCDAGGPR (UniProt Q9NXG2),-0.658
2,TDRD7_Q8NHU6_568_FCSLSFQATK (UniProt Q8NHU6),0.191
3,THBD_P07204_256_EAPGAWDCSVENGGCEHACNAIPGAPR (UniProt P07204),-0.213
4,TIMM44_O43615_343_DWCYEATYSQLAHPIQQAK (UniProt O43615),0.208
5,THOC5_Q13769_613_ELCGPWPSHQLLTNQLQR (UniProt Q13769),0.0519
6,TKT_P29401_206+225_CEAFGWHAIIVDGHSVEELCK (UniProt P29401),0.177
7,TK1_P04183_156_LTAVCMECFR (UniProt P04183),0.15
8,TKFC_Q3LXA3_24_KLVNSVAGCADDALAGLVACNPNLQLLQGHR (UniProt Q3LXA3),-0.0575
9,THOC6_Q86W42_214_HEECSRPHNGR (UniProt Q86W42),0.1
10,THOC7_Q6I9Y2_90_EIECSIAGAHEK (UniProt Q6I9Y2),-0.0418
11,THOP1_P52888_175_LSLLCIDFNK (UniProt P52888),-0.158
12,TCP1_P17987_397_SLHDALCVVKR (UniProt P17987),-0.118
13,THYN1_Q9P016_89_QTTCWDGVR (UniProt Q9P016),-0.0527
14,TIMM29_Q9BSF4_46_DYAEACR (UniProt Q9BSF4),-0.24
15,TES_Q9UGI8_412_FMPVEGMVFCSVECK (UniProt Q9UGI8),-0.0362
16,TKT_P29401_417_MAAISESNINLCGSHCGVSIGEDGPSQMALEDLAMFR (UniProt P29401),0.31
17,TLN1_Q9Y490_1927_HRVQELGHGCAALVTK (UniProt Q9Y490),-0.0503
18,THBS1_P07996_930_DSDGDGRGDACK (UniProt P07996),-0.977
19,THOC6_Q86W42_148_ENSLILAGGDCQLHTMDLETGTFTR (UniProt Q86W42),0.104
20,TIPRL_O75663_87_VACAEEWQESR (UniProt O75663),-0.298

# Same assay, conditions: 50 µM; THP-1; incubation time: 4 h
row,Target,probe-labelled cysteine peptide fold change
1,TDP1_Q9NUW8_413_WLCSEFK (UniProt Q9NUW8),-0.206
2,TGFBR1_P36897_347_NGTCCIADLGLAVR (UniProt P36897),-0.181
3,THOC2_Q8NI27_1031_VFSDIIYTVASCTENEASR (UniProt Q8NI27),0.189
4,TIMELESS_Q9UNS1_606_IQDCLLAGQAPQALTLLR (UniProt Q9UNS1),-0.232
5,THOC2_Q8NI27_1045_FLCCMLETVTR (UniProt Q8NI27),-0.435
6,THOP1_P52888_434_YGHAACFGLQPGCLR (UniProt P52888),0.0869
7,TDRD3_Q9H7E2_377_CDRPYSR (UniProt Q9H7E2),-0.233
8,TET2_Q6N021_784_VEECFHGENQYSK (UniProt Q6N021),-0.385
9,TECR_Q9NZ01_18_LCFLDK (UniProt Q9NZ01),-0.16
10,THAP10_Q9P2Z0_171_QAAASQITCENELVQTQPHADNPSNTVTSVPTHCEEGPVHK (UniProt Q9P2Z0),-0.447
11,THOC1_Q96FV9_49_KCTLDQAFR (UniProt Q96FV9),-0.739
12,TLDC1_Q6P9B6_292_GPCVAVLEDHDK (UniProt Q6P9B6),0.231
13,TKT_P29401_413+417_MAAISESNINLCGSHCGVSIGEDGPSQMALEDLAMFR (UniProt P29401),-0.00473
14,TEP1_Q99973_171_GLDLSTCPIALK (UniProt Q99973),-0.948
15,THOP1_P52888_246_KVEEAFNCR (UniProt P52888),-0.282
16,TKT_P29401_206+225_RCEAFGWHAIIVDGHSVEELCK (UniProt P29401),0.0364
17,TLN1_Q9Y490_1509_HTSALCNSCR (UniProt Q9Y490),-0.0191
18,THUMPD3_Q9BV44_434_VCTPTTGR (UniProt Q9BV44),-0.278
19,TEP1_Q99973_1468_SWEEAVAAGNSGDPYPMGPFACLVQSLR (UniProt Q99973),-0.27
20,TEX264_Q9Y6I9_165_KLCAYPR (UniProt Q9Y6I9),-0.67

row,Target,probe-labelled cysteine peptide fold change
1,THUMPD1_Q9NXG2_31_RCDAGGPR (UniProt Q9NXG2),-0.594
2,TDRD7_Q8NHU6_568_FCSLSFQATK (UniProt Q8NHU6),0.232
3,THBD_P07204_256_EAPGAWDCSVENGGCEHACNAIPGAPR (UniProt P07204),0.174
4,TIMM44_O43615_343_DWCYEATYSQLAHPIQQAK (UniProt O43615),0.259
5,THOC5_Q13769_613_ELCGPWPSHQLLTNQLQR (UniProt Q13769),0.219
6,TKT_P29401_206+225_CEAFGWHAIIVDGHSVEELCK (UniProt P29401),0.275
7,TK1_P04183_156_LTAVCMECFR (UniProt P04183),0.139
8,TKFC_Q3LXA3_24_KLVNSVAGCADDALAGLVACNPNLQLLQGHR (UniProt Q3LXA3),-0.141
9,THOC6_Q86W42_214_HEECSRPHNGR (UniProt Q86W42),0.312
10,THOC7_Q6I9Y2_90_EIECSIAGAHEK (UniProt Q6I9Y2),0.0365
11,THOP1_P52888_175_LSLLCIDFNK (UniProt P52888),0.105
12,TCP1_P17987_397_SLHDALCVVKR (UniProt P17987),-0.718
13,THYN1_Q9P016_89_QTTCWDGVR (UniProt Q9P016),-0.0937
14,TIMM29_Q9BSF4_46_DYAEACR (UniProt Q9BSF4),-0.0837
15,TES_Q9UGI8_412_FMPVEGMVFCSVECK (UniProt Q9UGI8),-0.000938
16,TKT_P29401_417_MAAISESNINLCGSHCGVSIGEDGPSQMALEDLAMFR (UniProt P29401),-0.138
17,TLN1_Q9Y490_1927_HRVQELGHGCAALVTK (UniProt Q9Y490),-0.0904
18,THBS1_P07996_930_DSDGDGRGDACK (UniProt P07996),-0.271
19,THOC6_Q86W42_148_ENSLILAGGDCQLHTMDLETGTFTR (UniProt Q86W42),0.156
20,TIPRL_O75663_87_VACAEEWQESR (UniProt O75663),-0.699
